This passage reports binding results from article PMC10741529.

The chains behind the UniProt entries cited, without tags or fusion partners. Where a name states a change or a piece, a line headed by the entry shows the natural chain unless it says otherwise.
UniProt Q8WYQ3: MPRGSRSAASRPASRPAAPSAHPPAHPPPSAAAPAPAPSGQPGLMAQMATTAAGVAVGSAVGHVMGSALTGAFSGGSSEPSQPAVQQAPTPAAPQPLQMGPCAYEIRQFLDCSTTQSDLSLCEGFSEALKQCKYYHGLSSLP
UniProt Q99MQ3: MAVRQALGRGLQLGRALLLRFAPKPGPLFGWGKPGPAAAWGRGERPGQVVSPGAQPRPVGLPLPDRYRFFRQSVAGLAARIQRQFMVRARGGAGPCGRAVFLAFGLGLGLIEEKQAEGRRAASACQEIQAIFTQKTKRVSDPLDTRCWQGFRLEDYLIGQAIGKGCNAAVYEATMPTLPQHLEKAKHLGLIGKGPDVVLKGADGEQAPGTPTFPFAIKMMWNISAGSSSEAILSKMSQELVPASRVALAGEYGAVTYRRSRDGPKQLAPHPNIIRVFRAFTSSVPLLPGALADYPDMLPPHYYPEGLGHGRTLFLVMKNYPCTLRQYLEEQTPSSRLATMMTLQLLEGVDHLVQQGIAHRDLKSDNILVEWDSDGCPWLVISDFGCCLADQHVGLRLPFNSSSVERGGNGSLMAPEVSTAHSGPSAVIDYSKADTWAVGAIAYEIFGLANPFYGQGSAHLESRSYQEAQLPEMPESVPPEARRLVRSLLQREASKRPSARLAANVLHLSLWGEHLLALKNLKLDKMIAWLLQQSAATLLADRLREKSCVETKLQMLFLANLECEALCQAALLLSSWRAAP

For assay [1], the target named is Flag-CHCHD10^WT (wild-type coiled-coil-helix-coiled-coil-helix domain-containing 10) (human) (UniProt Q8WYQ3). The experiment in a line: proximity ligation; HT22 cells transfected with Flag-CHCHD10 variants, after CCCP (1 mM, 12 h); fixed cells, anti-PINK1 + M2 Flag antibodies, Duolink probes.
Assay [2] shares this target. Put plainly: proximity ligation; HT22 cells transfected with Flag-CHCHD10 variants, with and without CCCP (1 mM, 12 h); fixed cells, anti-PARL + M2 Flag antibodies, Duolink probes.
For assay [3], the target named is Flag-CHCHD10^R15L (human) (UniProt Q8WYQ3). Described as above.
The target in assay [4] is Flag-CHCHD10^S59L (human) (UniProt Q8WYQ3). The assay is described as above.

These are yes or no findings as the source states them, for the method shown. Binding seen in cells or lysates may run through a third protein. Binding can be weak; no strength is given.

On to “PTEN-induced kinase 1 (PINK1), endogenous in HT22 cells (from UniProt Q99MQ3 78-580) (enzyme)”, for which the binding result in assay [1] is listed as “binds”.

B1: presenilin-associated rhomboid-like protein (PARL), endogenous in HT22 cells (enzyme, UniProt Q5XJY4 51-377)
chain: FRKAPRKVEPRRSDTGSSGEAYKRSALIPPLEETVFYPSPYPIRTLVKPFFFTIGFTGCAFGSAAIWQYESLKSRVQSYFDGIKADWLDSIRPQKEGNLRKEINKWWNSLSDGQRTVTGIIAANALVFCLWRVPSLQRTMIRYFTSNPASKVLCSPMLLSTFSHFSLFHMAANMYVLWSFSSSIVNILGQEQFVAVYLSAGVISNFVSYVCKVATGRYGPSLGASGAIMTVLAAVCTKIPEGRLAIIFLPVFTFTAGNALKAIIAMDTAGMILGWKFFDHAAHLGGALFGIWYITYGHELIWKNREPLVKIWHEIRTNGPKKGGGSK
For the molecule B1, the binding result in assay [2], in assay [3] and in assay [4] was “binds” in each case.
